Experimental data: US20090274695A1
No constants are given. Whether binding was seen depends on the method and setting. Some entries that bind do so weakly or less than the wild type.

The chains behind the UniProt entries cited, without tags or fusion partners. Residues count along the entry.
UniProt Q03405, residues 23-303: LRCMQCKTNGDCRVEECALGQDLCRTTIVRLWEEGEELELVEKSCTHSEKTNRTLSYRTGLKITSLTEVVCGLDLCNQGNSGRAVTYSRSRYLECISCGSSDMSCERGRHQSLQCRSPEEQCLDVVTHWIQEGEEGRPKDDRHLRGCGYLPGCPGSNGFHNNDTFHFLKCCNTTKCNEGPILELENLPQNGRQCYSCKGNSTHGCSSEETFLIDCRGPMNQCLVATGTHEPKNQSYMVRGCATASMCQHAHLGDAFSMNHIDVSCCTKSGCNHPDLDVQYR

Target: Recombinant human uPAR (R&D Systems), immobilized on a CM5 sensor chip (human) (UniProt Q03405)
Test: SPR on immobilized uPAR

binding	Binder
binds	CYTL1 expressed in mammalian cells (ligand) TPPTCYSRMRALSQEITRDFNLLQVSEPSEPCVRYLPRLYLDIHNYCVLDKLRDFVASPPCWKVAQVDSLKDKARKLYTIMNSFCRRDLVFLLDDCNALEYPIPVTTVLPDRQR
binds	CYTL1 expressed in bacteria (ligand) TPPTCYSRMRALSQEITRDFNLLQVSEPSEPCVRYLPRLYLDIHNYCVLDKLRDFVASPPCWKVAQVDSLKDKARKLYTIMNSFCRRDLVFLLDDCNALEYPIPVTTVLPDRQR
